This experiment deals with T1, Flag-FGD1, translated in vitro (UniProt P98174).
T1 sequence: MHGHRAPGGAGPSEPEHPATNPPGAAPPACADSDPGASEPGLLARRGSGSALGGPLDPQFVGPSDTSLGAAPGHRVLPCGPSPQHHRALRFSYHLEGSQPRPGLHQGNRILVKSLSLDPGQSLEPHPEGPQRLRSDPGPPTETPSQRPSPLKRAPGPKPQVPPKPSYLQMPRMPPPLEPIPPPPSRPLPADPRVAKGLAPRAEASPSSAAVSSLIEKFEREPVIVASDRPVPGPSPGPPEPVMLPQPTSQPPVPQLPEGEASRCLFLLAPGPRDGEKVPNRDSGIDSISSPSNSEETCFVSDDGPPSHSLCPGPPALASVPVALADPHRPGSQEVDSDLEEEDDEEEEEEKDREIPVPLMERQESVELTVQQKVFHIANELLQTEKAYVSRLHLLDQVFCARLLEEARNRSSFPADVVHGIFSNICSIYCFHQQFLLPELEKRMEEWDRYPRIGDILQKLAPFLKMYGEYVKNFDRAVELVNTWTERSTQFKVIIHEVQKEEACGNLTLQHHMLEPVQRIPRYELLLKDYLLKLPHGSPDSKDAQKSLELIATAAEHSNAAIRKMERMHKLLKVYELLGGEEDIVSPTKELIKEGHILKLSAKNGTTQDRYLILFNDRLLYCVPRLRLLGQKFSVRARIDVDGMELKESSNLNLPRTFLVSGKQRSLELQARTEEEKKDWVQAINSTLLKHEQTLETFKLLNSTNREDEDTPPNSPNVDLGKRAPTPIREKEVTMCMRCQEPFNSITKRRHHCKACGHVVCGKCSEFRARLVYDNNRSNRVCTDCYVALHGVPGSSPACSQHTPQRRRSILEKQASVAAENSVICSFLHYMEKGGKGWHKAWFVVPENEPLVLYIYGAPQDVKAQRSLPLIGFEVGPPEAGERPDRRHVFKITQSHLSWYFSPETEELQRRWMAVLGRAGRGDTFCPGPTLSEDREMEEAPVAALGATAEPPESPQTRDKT
Put plainly: co-IP; Flag-FGD1, Myc-PTEN-N and Myc-PTEN-C translated in vitro (TNT Quick translation system), then co-immunoprecipitated.

Amino acid sequences for entries named in this document (tags omitted). Residues count along the entry.
UniProt P60484, residues 1-186: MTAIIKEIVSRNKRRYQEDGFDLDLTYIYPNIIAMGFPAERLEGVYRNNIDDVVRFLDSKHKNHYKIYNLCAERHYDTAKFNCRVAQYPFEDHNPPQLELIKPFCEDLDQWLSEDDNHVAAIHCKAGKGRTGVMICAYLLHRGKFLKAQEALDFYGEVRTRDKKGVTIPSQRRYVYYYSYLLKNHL

No constants are given. Whether binding was seen depends on the method and setting. In cells and extracts the contact can be indirect. Some results given as binding are weak or reduced against the parent protein; the word gives no strength. Sequences can lack the tags named with a protein.

For the substance “Myc-PTEN-N (amino acids 1-186), translated in vitro (from UniProt P60484 1-186) (domain or fragment)”, the binding entry was “binds”.

The values above are taken from PMC7052884.
